Source: PubChem BioAssay AID1259415 (National Center for Advancing Translational Sciences (NCATS), 2018)
About 18,000 (4.4%) of roughly 410,000 compounds were called active. Inconclusive means that the source gave no clear call. Such entries were picked first, then a sample of the others. No stated cut-off is given here; in the data, active means activity change below about -60%; inconclusive means no clear call, values can overlap the other calls; inactive means above about -39%.

assay: qHTS Assay for inhibitors of the human cytomegalovirus (HCMV); details: HFF cells, HCMV-luciferase reporter, 72 h; at 57.5 µM; active compounds read low
How it was run: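 Compounds were evaluated in HFFs infected with an HCMV luciferase reporter virus (MOI 1 PFU/cell). Luciferase in lysates collected 72 h post infection served as the replication measure.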
On the % scale 0 is the no-effect control and ±100 the full control effect.

SMILES	activity change, negative = inhibition
Cn1c(/C=C/c2ccccc2)nc2ccccc21	inconclusive: -42.8%
CN(C)/C=C(\c1cnc(Cl)s1)S(=O)(=O)c1ccccc1	inconclusive: -49.1%
CCOC(=O)c1cc(C)n(CC2CCC(C(=O)Nc3ccc(Cl)cc3)CC2)c1C (stereo unspecified)	active: -79.5%
CCN(CC)CCCn1c2c(c(SCC(=O)N3CCCc4ccccc43)nc1=O)CCC2	inconclusive: -42.4%
O=C(Nc1ccc(CN2CCOCC2)cc1)c1cc2ccccc2o1	inactive: 20.6%
O=C(/C=C/c1ccccc1)NC(NC(=S)Nc1ccc(Cl)cc1)C(Cl)(Cl)Cl (stereo unspecified)	inconclusive: -44%
CC1CCN(S(=O)(=O)c2ccc(C(=O)Nc3sc4c(c3C(N)=O)CC(C)(C)NC4(C)C)cc2)CC1	inactive: -9.06%
Cc1ccccc1Cn1cnc2ccccc21	inconclusive: -59%
CC(C)(C)CC(C)(C)NCC(O)COCCOc1ccc(Br)cc1 (stereo unspecified)	active: -100%
COc1ccc(C2N=C(c3ccccc3)C(C)(C)N2O)cc1 (stereo unspecified)	inconclusive: -45.1%
CCC(C)N(C(=O)c1csnn1)C(C(=O)NCc1ccc(F)cc1)c1ccccc1F (stereo unspecified)	inconclusive: -51.1%
CCOC(=O)N/N=C\c1ccc(-c2cc(Cl)ccc2Cl)o1	inconclusive: -44.1%
Cc1ccc(Sc2sc(=O)n(C)c2S(=O)(=O)c2ccc(C)cc2)cc1	inconclusive: -41.4%
COc1ccc(OC)c(C(=O)NC2CCCc3c2cnn3-c2cc(C)cc(C)c2)c1 (stereo unspecified)	inconclusive: -49.6%
COc1ccccc1N1CCN(C(=O)CSc2nc3ccccc3nc2N2CCC(C)CC2)CC1	inconclusive: -42.9%
COC(=O)c1sc2nc(C)nc(SCC(=O)Nc3sccc3C(N)=O)c2c1C	inconclusive: 0%
COc1cc2[nH]c(=S)n(CCN3CCCCC3C)c(=O)c2cc1OC (stereo unspecified)	active: -75.7%
CC(NC(=O)c1ccccc1F)c1ccccc1 (stereo unspecified)	inconclusive: -42.4%
Cc1cc(C)cc(OCCCn2c(CCNC(=O)C3CCCCC3)nc3ccccc32)c1	inconclusive: -51.2%
CC1Sc2ccc(C#N)cc2N(Cc2cccc(C(F)(F)F)c2)C1=O (stereo unspecified)	inconclusive: -47.6%
CC(=O)Nc1ccc(-c2csc(NC(=O)C3CC(=O)N(c4ccc5c(c4)OCCO5)C3)n2)cc1 (stereo unspecified)	inconclusive: -43.8%
Cc1ccc(C(=O)Cn2nc(C(=O)O)c3ccccc3c2=O)cc1C	inactive: -11.9%

SMILES	activity change, negative = inhibition
CCOc1ccc(C(=O)NC2CC3CCCC(C2)N3CC(C)C)cc1 (stereo unspecified)	inconclusive: -44.8%
Cc1ccc(CNc2nc(NC(C)C)nc3ccsc23)c(C)c1	inactive: -7.97%
CCC1=Nc2cc(C(=O)NCCCN3CCOCC3)ccc2Sc2ccc(Br)cc21	inconclusive: -42%
Cc1cccn2c(=O)c3cc(C(=O)NCc4ccccc4)c(=N)n(CCOCCO)c3nc12	inconclusive: -41.7%
CCOC(=O)CC1c2cc(OCC)c(OCC)cc2CCN1C(=O)Nc1cccc(Cl)c1 (stereo unspecified)	inactive: -17.2%
COc1ccccc1NS(=O)(=O)c1ccc(C)c(C(=O)N2CCN(c3ccc(O)cc3)CC2)c1	inconclusive: -42.3%
Nc1[nH]c(C(=O)c2ccccc2)c(-c2ccccc2C(F)(F)F)c1C(=O)NCCc1c[nH]c2ccccc12	active: -60.5%
CC(=O)c1cc(C(=O)Nc2cc(C)cc(C)c2)c2ccccn12	inconclusive: -47.2%
CCOc1cc(/C=N/Nc2nc(=O)[nH]nc2C)ccc1O	inactive: -28.5%
COC(=O)c1sc2cccc(F)c2c1S(=O)(=O)N1CCN(c2ccc(F)cc2)CC1	inactive: -9.33%
COc1cc(OC)c(NC(=O)NCc2ccc3c(c2)CCN3C(=O)c2ccccc2)cc1Cl	inactive: -25.5%
COc1cc2c(cc1OC)C(COc1cccc(C(F)(F)F)c1)NCC2 (stereo unspecified)	active: -71.4%
S=c1[nH]nc(C2CCCCC2)n1Cc1ccccc1	inconclusive: -46.8%
Cc1nc(N2CCCCC2)c2c(C)c(C(=O)Nc3ccccc3C(F)(F)F)sc2n1	inconclusive: -53.3%
Cc1ccc(C(=O)COC(=O)c2ccccc2NC(=O)c2ccccc2)cc1[N+](=O)[O-]	inconclusive: -49.2%
Cc1ccc(-c2nnc(SCc3nc4ccccc4[nH]3)n2Cc2ccco2)cc1	inactive: -17%
Cc1ccccc1CN1CCCC(C(=O)Nc2ccc(-c3ccn[nH]3)cc2)C1 (stereo unspecified)	active: -63.3%
Cc1ccccc1CC(=O)Nc1ccc2c(c1)c(=O)n(C)n2-c1ccccc1F	inconclusive: -58.8%
CC/C(O)=C1\C(=O)CC(C)(C)CC1=Nc1ccccc1C	inconclusive: -46.7%
O=C(Nc1ccc(CN2CCOCC2)cc1)c1ccc(F)cc1	inactive: 95.8%
O=C(Nc1ccc2c(c1)OCCO2)c1ccc(S(=O)(=O)N2CCCCC2)cc1	inconclusive: -53.9%
COc1ccc(C2NC(=O)NC(C)=C2C(=O)OC2CCC(C)CC2)cc1 (stereo unspecified)	inconclusive: -45.7%

A second format for part of the listing above:
CCOC(=O)CC1c2cc(OCC)c(OCC)cc2CCN1C(=O)Nc1cccc(Cl)c1 (stereo unspecified)
  activity change, negative = inhibition: inactive: -17.2%
COc1ccccc1NS(=O)(=O)c1ccc(C)c(C(=O)N2CCN(c3ccc(O)cc3)CC2)c1
  activity change, negative = inhibition: inconclusive: -42.3%
Nc1[nH]c(C(=O)c2ccccc2)c(-c2ccccc2C(F)(F)F)c1C(=O)NCCc1c[nH]c2ccccc12
  activity change, negative = inhibition: active: -60.5%

Continuation.

SMILES	activity change, negative = inhibition
O=[N+]([O-])c1cccnc1Sc1ccc(Br)cc1	inconclusive: -43.4%
CN1CCN(c2nc3c(S(=O)(=O)c4ccc(Br)cc4)nnn3c3ccsc23)CC1	inactive: 63.3%
CCSc1nnc(NC(=O)[C@@H](NC(=O)c2cccc(C)c2)C(C)C)s1	inconclusive: -43.9%
Cc1ccccc1C(=O)Nc1ccc2c(c1)OCO2	inconclusive: -45.9%
COc1cccc(CN2CCc3nc(N4CCN(c5ncccn5)CC4)ncc3C2)c1	inconclusive: -44.9%
CCOc1ccc2nc(NC(=O)CC3Oc4ccccc4NC3=O)sc2c1 (stereo unspecified)	inconclusive: -56.5%
Cc1oc(-c2cc(F)ccc2F)nc1CN1CCN(c2ncnc3ccccc23)CC1	active: -62.7%
O=C(Cn1cc([N+](=O)[O-])cn1)N1CCc2ccccc2C1	inconclusive: -44.4%
COc1ccc(NC(=O)CSc2oc(-c3ccco3)nc2S(=O)(=O)c2ccc(Br)cc2)c(OC)c1	inactive: 2.02%
CCc1ccc2oc(-c3cc(NC(=O)C(C)C)cc(C)c3O)nc2c1	inactive: -9.05%
Cc1sc2nc(CSC(C)C(=O)Nc3cc(S(C)(=O)=O)ccc3Cl)[nH]c(=O)c2c1C (stereo unspecified)	inconclusive: -40.5%
c1ccc(Cc2cc[n+](Cc3ccccc3)cc2)cc1	inconclusive: -46.2%
CCOc1ccc(Br)cc1S(=O)(=O)NC1=NCCCCC1	active: -63.8%
CC1Sc2ccc(S(=O)(=O)NCCc3ccc(S(N)(=O)=O)cc3)cc2NC1=O (stereo unspecified)	inconclusive: -50%
CC(C)(C)c1ccccc1NC(=O)NC1CCN(Cc2c(F)cccc2Cl)CC1	inconclusive: -42%
c1ccc(Cc2nnc3n2CCCCC3)cc1	inactive: -1.65%
CC(C)CCCN1CCN=C1N(C)C	active: -73.8%
CCCNC(=O)c1cccc(S(=O)(=O)N2CC3(C)CC2CC(C)(C)C3)c1 (stereo unspecified)	inconclusive: -51.5%
NS(=O)(=O)c1ccc(NC(=O)c2ccc3c(c2)CCN3S(=O)(=O)c2ccccc2)cc1	inconclusive: -44.6%
Nc1ccccc1C(=O)Nc1cccc2ccccc12	inactive: 10.8%
Cc1cc(OCC(=O)NC2CCN(C)CC2)ccc1[N+](=O)[O-]	inconclusive: -43.1%
COc1ccccc1NC(=O)CN1C(=O)C2(SCC(=O)N2c2ccc(C)c(C)c2)c2ccccc21 (stereo unspecified)	active: -71.9%

SMILES	activity change, negative = inhibition
O=C(CCC(=O)N/N=C/c1ccc(Br)s1)NCc1ccccc1	inconclusive: -44.5%
Cc1nnc(NC(=O)CSc2nc3c(c(=O)n(C)c(=O)n3C)n2C(C)C)s1	inconclusive: -40.4%
Nc1c(C(=O)NCc2ccc3c(c2)OCO3)nnn1-c1ccc(OC(F)(F)F)cc1	inconclusive: -53.5%
CCOc1ccc2nc(SCC(=O)NC3CCCCC3)[nH]c2c1	inconclusive: -41.4%
COc1ccc(C(NC(=O)C2CCN(CCCOc3ccccc3)CC2)c2cccs2)cc1 (stereo unspecified)	active: -103%
CC(C)c1cccc(-c2ccc3c(c2)S(=O)(=O)c2cccc(C(=O)NCc4ccco4)c2C3=O)c1	inconclusive: -55.8%
CCn1ccc2cc(S(=O)(=O)N3CCC(C(=O)NCCc4ccc(C)cc4)CC3)ccc21	inactive: -15%
Cc1nnsc1SCC(=O)O	active: -98.9%
O=C(NCc1ccc2c(c1)OCO2)c1cc2c(s1)CS(=O)(=O)C2	inconclusive: -43.9%
CCOCCSc1c(C)cnc2c1c(=O)n(C)c(=O)n2C	inconclusive: -51.6%
CC(C)C[C@@H](CN1CCC[C@@H]1CN1C(=O)C(=O)NC[C@@H]1Cc1ccccc1)N1C[C@H](Cc2ccc(O)cc2)N(CC2CCCCCC2)C(=O)C1=O	inconclusive: -47%
O=C(Nc1cc(Cl)ccc1O)C1CC(c2ccccc2Cl)=NO1 (stereo unspecified)	inconclusive: -40.3%
Cc1ccc(N2C(=O)c3[nH]nc(-c4ccc(Cl)cc4)c3C2c2ccc(F)cc2)cc1 (stereo unspecified)	active: -105%
C#CCn1c(S(=O)(=O)Cc2ccc(F)cc2)nc(-c2ccccc2)c1-c1ccccc1	active: -97.3%
O=C(CN1CCN(Cc2ccccc2)CC1)N/N=C/c1c[nH]c2ccccc12	inconclusive: -56.8%
COc1cccc(C(=O)Nc2ccc(-c3cn4cccnc4n3)cc2)c1OC	inactive: -8.76%
Cc1ccccc1COC(=O)CCCC1=NS(=O)(=O)c2ccccc2N1	inconclusive: -53.9%
O=C(c1cc2ccccc2o1)N1CCN(Cc2ccc3c(c2)OCO3)CC1	inconclusive: -53.7%
N#C/C(=C\c1cn(-c2ccccc2)nc1-c1cccnc1)c1nnc2n1CCCCC2	inconclusive: -58.5%
CCn1c(SCC(=O)N2CCCCC2)nc2c1c(=O)n(C)c(=O)n2C	inconclusive: -47.1%
